Experimental data taken from article PMC8881269.

The chains behind the UniProt entries cited, without tags or fusion partners.
UniProt Q96RU2: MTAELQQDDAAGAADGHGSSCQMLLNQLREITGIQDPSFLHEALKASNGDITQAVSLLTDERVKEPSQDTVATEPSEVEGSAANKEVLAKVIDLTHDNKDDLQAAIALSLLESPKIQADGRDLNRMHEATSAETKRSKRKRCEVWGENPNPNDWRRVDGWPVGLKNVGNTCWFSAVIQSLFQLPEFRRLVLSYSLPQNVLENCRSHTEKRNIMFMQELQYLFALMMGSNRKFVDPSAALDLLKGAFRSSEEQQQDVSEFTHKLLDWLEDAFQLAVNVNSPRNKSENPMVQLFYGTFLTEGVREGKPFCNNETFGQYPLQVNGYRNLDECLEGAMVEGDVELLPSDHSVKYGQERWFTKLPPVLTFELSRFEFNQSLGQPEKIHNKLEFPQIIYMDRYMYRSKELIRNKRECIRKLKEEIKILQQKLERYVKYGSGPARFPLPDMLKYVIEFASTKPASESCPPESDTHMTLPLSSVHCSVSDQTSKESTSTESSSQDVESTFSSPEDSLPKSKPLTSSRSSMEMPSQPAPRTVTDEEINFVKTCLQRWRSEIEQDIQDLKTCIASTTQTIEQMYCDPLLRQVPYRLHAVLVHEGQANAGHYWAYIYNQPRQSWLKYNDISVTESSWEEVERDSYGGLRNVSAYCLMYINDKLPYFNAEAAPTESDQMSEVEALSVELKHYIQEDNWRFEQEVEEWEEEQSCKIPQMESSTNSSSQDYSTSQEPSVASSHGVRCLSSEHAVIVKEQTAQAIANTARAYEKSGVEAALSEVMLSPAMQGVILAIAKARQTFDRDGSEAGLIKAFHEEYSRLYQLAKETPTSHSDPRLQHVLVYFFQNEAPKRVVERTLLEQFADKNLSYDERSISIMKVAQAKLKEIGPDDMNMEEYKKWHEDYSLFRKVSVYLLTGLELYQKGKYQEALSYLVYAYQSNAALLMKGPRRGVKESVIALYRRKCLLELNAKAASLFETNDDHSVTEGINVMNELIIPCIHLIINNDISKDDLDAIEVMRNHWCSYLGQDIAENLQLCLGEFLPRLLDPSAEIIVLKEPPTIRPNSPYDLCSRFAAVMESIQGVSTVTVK
UniProt Q14676: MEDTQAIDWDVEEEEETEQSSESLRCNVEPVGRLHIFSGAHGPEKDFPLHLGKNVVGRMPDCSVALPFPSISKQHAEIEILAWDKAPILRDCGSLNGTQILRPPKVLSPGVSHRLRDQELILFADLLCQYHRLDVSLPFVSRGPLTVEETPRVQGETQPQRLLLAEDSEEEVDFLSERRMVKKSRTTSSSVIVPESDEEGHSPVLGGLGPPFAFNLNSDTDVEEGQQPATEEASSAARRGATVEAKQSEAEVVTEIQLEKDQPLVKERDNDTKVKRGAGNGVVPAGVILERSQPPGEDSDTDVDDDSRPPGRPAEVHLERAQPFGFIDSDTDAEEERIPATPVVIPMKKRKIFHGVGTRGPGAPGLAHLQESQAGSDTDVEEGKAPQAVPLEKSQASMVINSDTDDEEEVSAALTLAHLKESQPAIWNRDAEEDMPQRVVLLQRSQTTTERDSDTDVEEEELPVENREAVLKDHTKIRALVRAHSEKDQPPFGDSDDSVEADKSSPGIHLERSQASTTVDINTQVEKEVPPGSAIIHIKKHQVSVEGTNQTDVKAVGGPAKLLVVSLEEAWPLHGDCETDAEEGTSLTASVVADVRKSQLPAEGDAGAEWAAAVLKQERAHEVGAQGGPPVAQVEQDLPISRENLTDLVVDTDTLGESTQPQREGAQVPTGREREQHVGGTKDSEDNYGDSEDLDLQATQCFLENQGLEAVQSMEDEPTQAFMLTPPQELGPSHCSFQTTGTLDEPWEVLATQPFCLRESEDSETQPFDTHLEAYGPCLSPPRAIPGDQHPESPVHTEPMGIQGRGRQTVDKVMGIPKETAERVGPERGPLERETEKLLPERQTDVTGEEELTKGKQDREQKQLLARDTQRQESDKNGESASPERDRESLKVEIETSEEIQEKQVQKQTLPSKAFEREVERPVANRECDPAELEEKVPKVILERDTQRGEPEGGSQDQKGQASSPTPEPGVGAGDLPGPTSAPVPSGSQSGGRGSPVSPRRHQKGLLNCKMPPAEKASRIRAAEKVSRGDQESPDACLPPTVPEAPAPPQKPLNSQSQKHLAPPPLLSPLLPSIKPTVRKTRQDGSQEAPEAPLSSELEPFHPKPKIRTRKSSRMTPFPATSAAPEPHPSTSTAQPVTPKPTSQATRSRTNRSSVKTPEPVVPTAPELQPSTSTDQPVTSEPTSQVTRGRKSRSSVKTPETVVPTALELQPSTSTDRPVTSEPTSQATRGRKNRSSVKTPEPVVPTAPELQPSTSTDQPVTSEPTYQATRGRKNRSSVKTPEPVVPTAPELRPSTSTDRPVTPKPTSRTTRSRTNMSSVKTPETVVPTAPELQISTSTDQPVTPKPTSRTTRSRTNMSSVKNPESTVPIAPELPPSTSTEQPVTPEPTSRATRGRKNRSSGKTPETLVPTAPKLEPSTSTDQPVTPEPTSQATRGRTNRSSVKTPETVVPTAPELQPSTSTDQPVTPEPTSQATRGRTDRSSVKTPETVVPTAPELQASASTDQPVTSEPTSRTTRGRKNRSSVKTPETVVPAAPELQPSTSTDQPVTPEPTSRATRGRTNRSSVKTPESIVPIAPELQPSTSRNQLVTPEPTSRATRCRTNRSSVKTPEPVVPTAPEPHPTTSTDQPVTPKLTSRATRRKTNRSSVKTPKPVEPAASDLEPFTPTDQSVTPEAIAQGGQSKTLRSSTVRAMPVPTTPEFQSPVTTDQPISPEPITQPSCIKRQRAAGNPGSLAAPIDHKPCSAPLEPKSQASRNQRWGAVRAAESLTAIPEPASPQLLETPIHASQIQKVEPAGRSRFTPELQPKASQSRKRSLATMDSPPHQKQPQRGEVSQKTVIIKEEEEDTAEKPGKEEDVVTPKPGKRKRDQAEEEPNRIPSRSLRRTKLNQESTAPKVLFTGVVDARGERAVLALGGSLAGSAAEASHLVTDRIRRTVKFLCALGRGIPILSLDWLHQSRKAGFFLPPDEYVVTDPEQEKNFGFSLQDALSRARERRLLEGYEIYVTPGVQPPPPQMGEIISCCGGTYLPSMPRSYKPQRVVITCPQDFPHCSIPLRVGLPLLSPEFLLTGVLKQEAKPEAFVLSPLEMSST
UniProt Q14980: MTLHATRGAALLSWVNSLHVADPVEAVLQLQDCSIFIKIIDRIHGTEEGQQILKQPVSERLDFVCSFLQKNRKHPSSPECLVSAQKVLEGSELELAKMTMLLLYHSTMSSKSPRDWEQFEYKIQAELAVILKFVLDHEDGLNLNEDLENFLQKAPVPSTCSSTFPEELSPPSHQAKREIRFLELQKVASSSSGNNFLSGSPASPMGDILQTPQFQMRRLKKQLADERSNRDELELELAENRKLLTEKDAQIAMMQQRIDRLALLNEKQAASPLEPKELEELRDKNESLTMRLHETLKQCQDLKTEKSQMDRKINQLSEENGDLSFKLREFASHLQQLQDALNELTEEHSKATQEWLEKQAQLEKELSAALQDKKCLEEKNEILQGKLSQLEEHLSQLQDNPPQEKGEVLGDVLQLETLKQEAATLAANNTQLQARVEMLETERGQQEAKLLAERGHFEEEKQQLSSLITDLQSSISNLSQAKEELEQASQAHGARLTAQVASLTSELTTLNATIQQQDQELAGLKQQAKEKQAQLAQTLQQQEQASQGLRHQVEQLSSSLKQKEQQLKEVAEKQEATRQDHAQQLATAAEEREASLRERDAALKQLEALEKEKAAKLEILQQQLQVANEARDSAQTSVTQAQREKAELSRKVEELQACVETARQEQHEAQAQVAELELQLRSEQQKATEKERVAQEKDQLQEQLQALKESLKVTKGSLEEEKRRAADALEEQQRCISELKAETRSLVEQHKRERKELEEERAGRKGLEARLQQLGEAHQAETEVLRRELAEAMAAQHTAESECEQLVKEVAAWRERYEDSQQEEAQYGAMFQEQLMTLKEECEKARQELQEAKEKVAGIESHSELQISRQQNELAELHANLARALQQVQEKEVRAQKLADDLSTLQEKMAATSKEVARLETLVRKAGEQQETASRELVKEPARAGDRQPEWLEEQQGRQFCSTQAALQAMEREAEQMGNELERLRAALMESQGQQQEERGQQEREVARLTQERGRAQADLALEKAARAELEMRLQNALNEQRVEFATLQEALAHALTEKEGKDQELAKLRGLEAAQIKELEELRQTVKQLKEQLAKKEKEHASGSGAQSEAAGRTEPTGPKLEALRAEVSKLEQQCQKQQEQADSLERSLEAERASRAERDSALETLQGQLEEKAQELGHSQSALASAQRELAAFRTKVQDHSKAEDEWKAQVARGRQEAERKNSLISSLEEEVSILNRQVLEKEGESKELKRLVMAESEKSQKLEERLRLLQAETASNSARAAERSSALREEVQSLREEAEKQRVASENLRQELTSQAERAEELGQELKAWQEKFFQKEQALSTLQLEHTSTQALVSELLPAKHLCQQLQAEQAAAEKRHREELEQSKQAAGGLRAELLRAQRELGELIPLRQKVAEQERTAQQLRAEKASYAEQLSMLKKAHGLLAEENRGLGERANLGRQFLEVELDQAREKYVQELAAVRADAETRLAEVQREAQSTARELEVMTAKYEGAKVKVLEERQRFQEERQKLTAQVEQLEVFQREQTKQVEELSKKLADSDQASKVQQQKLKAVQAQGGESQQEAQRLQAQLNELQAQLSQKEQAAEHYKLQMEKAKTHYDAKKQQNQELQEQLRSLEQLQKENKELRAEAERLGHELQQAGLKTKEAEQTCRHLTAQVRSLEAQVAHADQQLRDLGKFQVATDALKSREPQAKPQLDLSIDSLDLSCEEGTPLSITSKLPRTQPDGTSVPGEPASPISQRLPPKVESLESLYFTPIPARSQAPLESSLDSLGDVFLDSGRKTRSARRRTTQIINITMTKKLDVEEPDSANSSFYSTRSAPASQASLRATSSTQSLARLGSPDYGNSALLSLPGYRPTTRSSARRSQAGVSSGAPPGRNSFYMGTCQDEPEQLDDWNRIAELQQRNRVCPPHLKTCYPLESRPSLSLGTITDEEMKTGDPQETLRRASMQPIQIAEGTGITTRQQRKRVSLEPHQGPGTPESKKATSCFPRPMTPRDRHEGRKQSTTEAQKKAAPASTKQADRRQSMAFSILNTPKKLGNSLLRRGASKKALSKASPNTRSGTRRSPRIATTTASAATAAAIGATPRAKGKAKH

Molecular target: Ubiquitin Specific Peptidase 28 (human (endogenous in HCT116)) (UniProt Q96RU2)
Test: affinity purification with mass spectrometry; anti-USP28 antibody on magnetic beads; lysates of HCT116 cells with and without DCD treatment (24 h after cytokinesis failure); lysis buffer 25 mM Tris-HCl pH 7.4, 150 mM NaCl, 1 mM EDTA, 1% NP-40, 5% glycerol; overnight at 4 °C; washes with 500 mM NaCl, 0.5% Triton X-100; volcano plot, t-test, FDR 0.05

| binding | Substance |
| --- | --- |
| binds | mediator of DNA damage checkpoint 1 (from UniProt Q14676 1-2089) |
| binds | nuclear mitotic apparatus protein 1 (from UniProt Q14980 1-2115) |

No constants are given. Whether binding was seen depends on the method and setting. In cells and extracts the contact can be indirect. These calls come from enrichment with a bait or labelling near it, and not all partners need be listed.
